# Laboratory results as given in PubChem BioAssay AID720534 (National Center for Advancing Translational Sciences (NCATS), 2013).
# About 990 (62%) of roughly 1,600 compounds were called active. The set was probably picked from earlier hits. This list was built around the results that the source calls inconclusive (neither active nor inactive); the mix of calls is not that of the screen. Calls follow the shape of the dose curve; as a rule, active = well fitted inhibition curve with a large enough effect; inconclusive = small, poorly fitted or top-dose-only effect; inactive = no such curve, though single readings can be large or run the other way. Where the call is inconclusive, the potency comes from a doubtful curve fit.
# Assay: qHTS for Inhibitors of TGF-b: Confirmation of Cherry Picks; also: nearly all actives have a fitted effect of over 65% in size
# Conditions: HepG2 CAGA-GFP TGF-b reporter, GFP fluorescence, 18 h, cells stimulated with TGF-beta, 500 pg/mL; activity, negative = inhibition: at 46.1 µM (top of the series)
# Procedure, shortened: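 HEPG2 CAGA-GFP, 1000 cells/well, DMEM + 1% FBS; 2 h settle at 37 degrees C; cpd pinned; rTGF-beta 500 pg/mL final; 18 h 37 degrees C; GFP imaging ex488/em500-530; %Activity vs unstimulated and stimulated +DMSO.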
# % is scaled to controls: 0 for no effect and ±100 for the full control effect; potency is read from the fitted curve at half-maximal effect.
SMILES,Potency,"activity, negative = inhibition"
Cc1ccc(NC(=O)c2cc(C(=O)c3cc(Cl)ccc3O)cn(-c3ccc(C)cc3)c2=O)cc1,"inconclusive: 18.4 µM [inhibitor, single point]",
CN(CC(=O)N1CCN(Cc2ccccc2)CC1)C(=O)Cc1cccc2ccccc12,"inconclusive: 29.1 µM [inhibitor, single point]",
COCCN=C1N[C@@H](c2ccc(Br)cc2)C(C(=O)OC)=C(C)N1Cc1ccccc1,"inconclusive: 29.1 µM [inhibitor, single point]",
COC(=O)c1sc(NC(=O)c2cc(-c3ccccc3)nc3ccccc23)c(C#N)c1C,active: 4.61 µM,
COc1ccc(NC(=O)Nc2ccc(O)c3ccccc23)cc1,"inconclusive: 20.6 µM [inhibitor, partial curve]",
CC(=O)c1cccc(-c2cnc3c(NC=O)cc(-c4ccc(N(C)C)cc4)cn23)c1,active: 7.31 µM,
CCOc1ccc(-n2cc(C(=O)c3cc(Cl)ccc3O)cc(C#N)c2=O)cc1,,inactive: -81.2%
CN(C)C(=O)c1cccc(-c2cnc3sc(NCc4ccc5c(c4)OCO5)nn23)c1,"inconclusive: 18.4 µM [inhibitor, single point]",
CC(C)(C)NS(=O)(=O)c1cccc(S(=O)(=O)c2cccc(S(=O)(=O)NC(C)(C)C)c2)c1,active: 14.6 µM,
COc1ccc(C(CNC(=O)c2oc3ccc(OC)cc3c2C)N2CCCC2)cc1 (stereo not given),"inconclusive: 25.9 µM [inhibitor, single point]",
CN(c1cccc(NC(=O)CN(c2cccc(Cl)c2)S(=O)(=O)c2ccccc2)c1)S(C)(=O)=O,,inactive: -6.31%
O=C(CSc1cccc[n+]1[O-])Nc1ccccc1Oc1ccccc1,,inactive: -10.5%
CC1CCCC(C)N1C(=O)Cn1cc(/C=C2/C(=O)Nc3ccccc32)c2ccccc21 (stereo not given),"inconclusive: 2.91 µM [inhibitor, full curve, poor fit]",
O=C(N/N=C/c1ccc2c(c1)OCO2)c1cc(-c2ccccc2Cl)nc2ccccc12,,inactive: -9.84%
CCCCNc1c(-c2ccc(OC)c(SC3CCCCC3)c2)nc2cc(C)ccn12,"inconclusive: 29.1 µM [inhibitor, single point]",
FC(F)(F)c1ccccc1Cc1c(-c2ccccc2)nc2ccc(Cl)cn12,"inconclusive: 20.6 µM [inhibitor, single point]",
CC(C)C[C@@H](CN1CCC[C@@H]1CN1C(=S)NC[C@@H]1Cc1ccc(O)cc1)N1C[C@H](Cc2ccccc2)N(CCc2ccccc2)C1=S,"inconclusive: 29.1 µM [inhibitor, single point]",
CCC(C)Sc1cccc(-c2nc3cc(C)ccn3c2NC2CCCCC2)c1 (stereo not given),"inconclusive: 29.1 µM [inhibitor, single point]",
Cc1ccc(NC(=O)C2(c3ccc([N+](=O)[O-])cc3)CCCC2)cc1,,inactive: -28.1%
CCCCn1c(NC(=O)c2ccco2)c(S(=O)(=O)c2ccc(C)cc2)c2nc3ccccc3nc21,,inactive: 3.4%

SMILES,Potency,"activity, negative = inhibition"
Cc1ccc(C)c(S(=O)(=O)Nc2ccccc2C(=O)Nc2cc(C)on2)c1,"inconclusive: 20.6 µM [inhibitor, single point]",
OCC1OC(n2cnc3c(NCc4ccco4)ncnc32)C(O)C1O (stereo not given),active: 5.8 µM,
Cc1cccc(CN2C(=O)NC(c3ccccc3)(c3ccccc3)C2=O)c1,"inconclusive: 29.1 µM [inhibitor, single point]",
Cc1cccc(C)c1N(CC(=O)Nc1cc(Cl)ccc1Oc1ccccc1)S(C)(=O)=O,"inconclusive: 10.3 µM [inhibitor, partial curve, poor fit]",
CCSc1nnc(NC(=O)Nc2cccc(C)c2)s1,"inconclusive: 18.4 µM [inhibitor, single point]",
COc1ccc(OC)c2sc(NC(=O)CCS(=O)(=O)c3ccccc3)nc12,active: 2.31 µM,
CCOC(=O)C#CC(CCc1ccccc1)OS(N)(=O)=O (stereo not given),,inactive: -29.3%
CCOc1ccc(CCN2C(=S)N([C@@H](CC(C)C)CN3CCC[C@@H]3CN3C(=S)NC[C@@H]3Cc3ccc(O)cc3)C[C@@H]2CC(C)C)cc1,active: 18.4 µM,
O=C(Oc1c(CN2CCOCC2)cc(Cl)c2cccnc12)c1cccs1,"inconclusive: 23.1 µM [inhibitor, partial curve, poor fit]",
COc1ccc2[nH]c3c(c2c1)CCN1C(=O)C(CC(=O)NCCC2=CCCCC2)C[C@H](C(=O)N(C(C)C)C(C)C)[C@@]31C (stereo not given in full),"inconclusive: 16.4 µM [inhibitor, single point]",
c1ccc2sc(C3CCN(Cc4nnnn4Cc4ccc5c(c4)OCO5)CC3)nc2c1,"inconclusive: 4.61 µM [inhibitor, full curve]",
COc1ccc(NC(=O)CCCSc2nc(-c3ccco3)cc(C(F)(F)F)n2)cc1OC,"inconclusive: 10.3 µM [inhibitor, partial curve, poor fit]",
COc1ccc2[nH]c3c(N4CCc5ccccc5C4)ncnc3c2c1,"inconclusive: 18.4 µM [inhibitor, single point]",
C=C(C)COc1ccc(-c2[nH]ncc2-c2ccc(OC)cc2)c(O)c1,"inconclusive: 29.1 µM [inhibitor, single point]",
CC(C)C[C@H]1CNC(=S)N1C[C@H]1CCCN1C[C@H](CC(C)C)N1C[C@H](Cc2ccc(O)cc2)N(CC2CCCCCC2)C1=S,"inconclusive: 18.4 µM [inhibitor, single point]",
CCOc1cc(/C=C2\COc3ccccc3C2=O)cc(Br)c1OCC(=O)N(C)C,active: 16.4 µM,
O=C(/C(=N\Nc1ccc([N+](=O)[O-])cc1)Sc1nnnn1-c1ccccc1)c1ccccc1,"inconclusive: 18.4 µM [inhibitor, single point]",
COc1ccccc1NC(=S)N=Nc1c(O)[nH]c2ccc(Br)cc12,"inconclusive: 9.2 µM [inhibitor, partial curve]",
Cc1cc(C)nc(/N=C(\N)Nc2ccc(CC(=O)OC(C)C)cc2)n1,"inconclusive: 4.11 µM [inhibitor, full curve, poor fit]",
COc1ccc(C)cc1S(=O)(=O)N1CCN(S(=O)(=O)c2cc(C(=O)O)ccc2C)CC1,,inactive: -6.42%

# Among those listed so far, 7 contain a Cl atom:
SMILES,Potency,"activity, negative = inhibition"
Cc1ccc(NC(=O)c2cc(C(=O)c3cc(Cl)ccc3O)cn(-c3ccc(C)cc3)c2=O)cc1,"inconclusive: 18.4 µM [inhibitor, single point]",
CCOc1ccc(-n2cc(C(=O)c3cc(Cl)ccc3O)cc(C#N)c2=O)cc1,,inactive: -81.2%
CN(c1cccc(NC(=O)CN(c2cccc(Cl)c2)S(=O)(=O)c2ccccc2)c1)S(C)(=O)=O,,inactive: -6.31%
O=C(N/N=C/c1ccc2c(c1)OCO2)c1cc(-c2ccccc2Cl)nc2ccccc12,,inactive: -9.84%
FC(F)(F)c1ccccc1Cc1c(-c2ccccc2)nc2ccc(Cl)cn12,"inconclusive: 20.6 µM [inhibitor, single point]",
Cc1cccc(C)c1N(CC(=O)Nc1cc(Cl)ccc1Oc1ccccc1)S(C)(=O)=O,"inconclusive: 10.3 µM [inhibitor, partial curve, poor fit]",
O=C(Oc1c(CN2CCOCC2)cc(Cl)c2cccnc12)c1cccs1,"inconclusive: 23.1 µM [inhibitor, partial curve, poor fit]",
